Results taken from PMC2697983.
Construct, isoform or probe ends are uncertain for at least one entry. For part of these data: A negative result means that nothing was seen under these conditions. For part of these data: At least one verdict was read from the data and is not stated in words by the source. For part of these data: Weaker means in comparison with the reference protein, sequence or condition of that experiment.

By UniProt entry, the sequences of proteins in these tests, tags left out. Where a name states a change or a piece, a line headed by the entry shows the natural chain unless it says otherwise.
UniProt Q60749: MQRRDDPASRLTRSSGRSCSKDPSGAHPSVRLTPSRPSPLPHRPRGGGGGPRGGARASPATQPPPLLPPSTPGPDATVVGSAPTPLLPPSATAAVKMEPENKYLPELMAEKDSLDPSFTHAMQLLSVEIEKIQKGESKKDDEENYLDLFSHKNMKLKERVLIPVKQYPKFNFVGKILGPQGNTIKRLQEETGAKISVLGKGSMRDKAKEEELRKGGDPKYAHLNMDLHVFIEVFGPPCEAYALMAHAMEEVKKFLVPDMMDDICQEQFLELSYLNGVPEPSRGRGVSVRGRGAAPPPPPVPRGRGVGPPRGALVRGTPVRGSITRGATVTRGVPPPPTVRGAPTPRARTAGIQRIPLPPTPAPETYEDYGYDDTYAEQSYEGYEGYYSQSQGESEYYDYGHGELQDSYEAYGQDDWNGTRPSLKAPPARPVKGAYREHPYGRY

Experiments:
His-GSG(SAM68) (mouse) = His-GSG(SAM68) (mouse) (UniProt Q60749); assay: EMSA; conditions: EMSA: 20 mM HEPES pH 7.4, 330 mM KCl, 10 mM MgCl2, 0.1 mM EDTA, 0.1 mg/ml heparin, 0.01% IGEPAL CA630, room temperature, 1 h; recombinant protein; protein details: His; label: 32P
His-SLM-2 = assay: EMSA; conditions: affinity like SRE-4wt (not shown); EMSA: 20 mM HEPES pH 7.4, 330 mM KCl, 10 mM MgCl2, 0.1 mM EDTA, 0.1 mg/ml heparin, 0.01% IGEPAL CA630, room temperature, 1 h; recombinant protein; protein details: His; label: 32P

| Sequence | binding result (His-GSG(SAM68) (mouse)) | binding result (His-SLM-2) |
| --- | --- | --- |
| GGUUCUAUACCCCCUUUCACUAUCCUAUUAACAGUUCC [SRE-4m4] | no binding | – |
| GGUUCUAUAAAAAUUUUCACUAUCCUACCCCCAGUUCC [SRE-4m3] | no binding | – |
| GGUUCUACCCCAAUUUUCACUAUCCUACCCCCAGUUCC [SRE-4m1] | no binding | – |
| UUUGGGGGUUCAAUAAAAAUUUUCACUAUCCUAUUAACAGUUCCGCCGCUCC [SRE-4 (52-mer)] | – | binds |
| GGUUCUAUAAAAAUUUUCACUAUCCUAUUAACAGUUCC [SRE-4wt] | binds | – |
| GGUUCUACCCCAAUUUUCACUAUCCUAUUAACAGUUCC [SRE-4m2] | binds more weakly | – |
